According to the supplement of paper PMC12819154, “High-throughput peptide-centric local stability assay extends protein–ligand identification to membrane proteins, tissues and bacteria” (Nature Structural & Molecular Biology, 2025):
Only a part is listed here, and it is no random draw. Small differences around the control level are noise.

By UniProt entry, the sequences of proteins in these tests, tags left out. Where a name states a change or a piece, a line headed by the entry shows the natural chain unless it says otherwise.
UniProt P76156: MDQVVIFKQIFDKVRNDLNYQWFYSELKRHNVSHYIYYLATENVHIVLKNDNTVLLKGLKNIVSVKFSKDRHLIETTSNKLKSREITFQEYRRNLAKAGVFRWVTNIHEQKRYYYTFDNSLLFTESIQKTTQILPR
UniProt P76445: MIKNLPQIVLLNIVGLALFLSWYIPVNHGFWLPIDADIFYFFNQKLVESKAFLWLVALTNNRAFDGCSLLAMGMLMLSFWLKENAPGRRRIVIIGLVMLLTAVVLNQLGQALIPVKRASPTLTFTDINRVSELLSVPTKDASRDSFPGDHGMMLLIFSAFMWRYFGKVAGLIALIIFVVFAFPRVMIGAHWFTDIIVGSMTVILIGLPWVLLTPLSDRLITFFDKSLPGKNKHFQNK
UniProt P76223: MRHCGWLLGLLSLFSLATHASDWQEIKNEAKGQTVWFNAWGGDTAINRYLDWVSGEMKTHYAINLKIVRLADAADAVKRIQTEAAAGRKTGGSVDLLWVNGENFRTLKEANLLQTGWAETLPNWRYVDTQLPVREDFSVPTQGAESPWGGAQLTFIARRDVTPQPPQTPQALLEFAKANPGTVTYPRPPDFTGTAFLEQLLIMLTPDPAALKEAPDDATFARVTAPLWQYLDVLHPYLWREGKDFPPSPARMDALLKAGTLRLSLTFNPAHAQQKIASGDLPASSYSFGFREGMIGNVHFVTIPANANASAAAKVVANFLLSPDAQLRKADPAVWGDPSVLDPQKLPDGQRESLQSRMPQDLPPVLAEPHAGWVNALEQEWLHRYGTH
UniProt P76234: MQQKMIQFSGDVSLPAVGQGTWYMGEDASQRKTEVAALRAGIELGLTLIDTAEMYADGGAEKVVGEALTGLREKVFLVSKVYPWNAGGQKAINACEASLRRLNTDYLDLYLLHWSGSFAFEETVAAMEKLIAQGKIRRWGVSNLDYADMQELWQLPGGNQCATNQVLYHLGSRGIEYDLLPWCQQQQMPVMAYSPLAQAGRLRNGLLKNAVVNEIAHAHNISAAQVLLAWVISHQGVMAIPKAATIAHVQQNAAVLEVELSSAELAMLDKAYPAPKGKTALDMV
UniProt P76002: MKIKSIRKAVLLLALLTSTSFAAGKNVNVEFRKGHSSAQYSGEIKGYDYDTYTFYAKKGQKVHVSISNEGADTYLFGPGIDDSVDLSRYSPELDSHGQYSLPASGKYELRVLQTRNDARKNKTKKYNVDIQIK
UniProt P76076: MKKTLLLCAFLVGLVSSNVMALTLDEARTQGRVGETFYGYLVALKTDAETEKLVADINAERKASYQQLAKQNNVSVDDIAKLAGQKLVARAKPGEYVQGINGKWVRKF
UniProt P76270: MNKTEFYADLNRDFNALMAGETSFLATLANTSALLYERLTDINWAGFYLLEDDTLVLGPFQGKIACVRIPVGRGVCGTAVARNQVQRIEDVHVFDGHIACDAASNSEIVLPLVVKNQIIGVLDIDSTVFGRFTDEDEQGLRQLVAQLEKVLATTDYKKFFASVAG
UniProt P76575: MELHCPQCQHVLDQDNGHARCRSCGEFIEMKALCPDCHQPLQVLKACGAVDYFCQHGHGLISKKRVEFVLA
UniProt P76190: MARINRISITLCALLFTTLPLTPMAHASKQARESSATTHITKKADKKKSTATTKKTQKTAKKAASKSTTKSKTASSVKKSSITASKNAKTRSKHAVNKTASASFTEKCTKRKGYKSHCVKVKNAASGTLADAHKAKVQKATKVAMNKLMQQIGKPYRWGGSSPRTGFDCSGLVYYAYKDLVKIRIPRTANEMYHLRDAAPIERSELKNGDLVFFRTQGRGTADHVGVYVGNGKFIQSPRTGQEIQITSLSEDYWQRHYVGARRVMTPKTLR
UniProt P76052: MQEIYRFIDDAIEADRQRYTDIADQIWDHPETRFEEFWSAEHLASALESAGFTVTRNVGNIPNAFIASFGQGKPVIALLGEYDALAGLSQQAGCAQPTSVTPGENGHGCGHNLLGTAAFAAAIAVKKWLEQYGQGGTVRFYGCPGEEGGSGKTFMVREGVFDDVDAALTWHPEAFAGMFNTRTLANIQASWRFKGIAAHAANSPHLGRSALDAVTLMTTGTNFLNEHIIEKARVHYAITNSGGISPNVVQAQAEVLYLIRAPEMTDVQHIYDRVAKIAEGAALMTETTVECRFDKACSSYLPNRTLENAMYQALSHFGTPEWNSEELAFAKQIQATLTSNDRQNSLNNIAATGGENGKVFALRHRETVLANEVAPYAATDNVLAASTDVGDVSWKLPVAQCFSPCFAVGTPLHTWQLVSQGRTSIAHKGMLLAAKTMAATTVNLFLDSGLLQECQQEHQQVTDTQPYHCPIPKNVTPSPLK
UniProt P77181: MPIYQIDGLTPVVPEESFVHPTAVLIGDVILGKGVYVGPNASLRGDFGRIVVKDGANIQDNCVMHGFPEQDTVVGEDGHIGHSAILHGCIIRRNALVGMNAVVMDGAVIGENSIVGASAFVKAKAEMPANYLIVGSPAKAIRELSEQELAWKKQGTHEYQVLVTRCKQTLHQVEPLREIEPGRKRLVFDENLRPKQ

compound: Nc1ncnc2c1ncn2[C@@H]1O[C@H](COP(=O)(O)OP(=O)(O)OP(=O)(O)O)[C@@H](O)[C@H]1O [adenosine 5'-triphosphate]; experiment: log2 fold change of tryptic peptide abundance, ligand vs vehicle (limited proteolysis) (log2 ratio); higher = more trypsin-susceptible (destabilized); conditions: ligand concentration: 5 mM; sample: E. coli desalted lysate; replicate design: treated before aliquoting
Method: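 HT-PELSA: desalted E. coli K-12 BW25113 lysate (with 12 mM MgCl2) incubated with 5 mM ATP (pH 7) or water for 30 min at 25 C, then a 4 min trypsin pulse at 22 C. Peptides were quantified by DIA-MS (4 replicates). Value is the peptide log2 fold change (treated/control); negative = stabilized. Scale: negative = ligand-stabilized region.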
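Further: lysate desalted by size exclusion to strip endogenous ATP, peptide intensities built from DIA-NN precursor signals, and peptides missing any value discarded before comparison.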

| Target | log2 fold change |
| --- | --- |
| UniProt P76156 (peptide sequence: NDLNYQWFYSELKR, peptide start residue: 16) | 0.314 |
| UniProt P76445 (peptide sequence: VSELLSVPTK, peptide start residue: 130) | 0.284 |
| UniProt P76223 (peptide sequence: YLDWVSGEMK, peptide start residue: 49) | -0.491 |
| UniProt P76234 (peptide sequence: AINACEASLR, peptide start residue: 91) | -0.642 |
| UniProt P76002 (peptide sequence: YNVDIQIK, peptide start residue: 126) | -0.202 |
| UniProt P76076 (peptide sequence: TDAETEKLVADINAERK, peptide start residue: 46) | -0.477 |
| UniProt P76270 (peptide sequence: VLATTDYKK, peptide start residue: 150) | 0.283 |
| UniProt P76575 (peptide sequence: KRVEFVLA, peptide start residue: 64) | 0.235 |
| UniProt P76190 (peptide sequence: GTADHVGVYVGNGK, peptide start residue: 220) | 1.11 |
| UniProt P76052 (peptide sequence: GIAAHAANSPHLGR, peptide start residue: 195) | 0.911 |
| UniProt P77181 (peptide sequence: RLVFDENLRPK, peptide start residue: 185) | -0.426 |
